Measured values reported in paper PMC3679034.
Positions count from the first letter of the chain named. No constants are given. Whether binding was seen depends on the method and setting. Binding seen in cells or lysates may run through a third protein. Binding can be weak; no strength is given. Sequences can lack the tags named with a protein.

How the values were obtained:
Assay in all cases: co-IP; lysates of L6 myoblasts transiently transfected with FLAG-GLUT1 constructs, treated for one hour with vehicle (DMSO), 6 µM CP466722 (ATM inhibitor) or 1 µM doxorubicin (ATM activator); FLAG antibodies overnight at 4°C, protein A sepharose 4 hours at 4°C, five washes with lysis buffer (50 mM HEPES pH 7.4, 150 mM NaCl, 1% Triton X-100); Western blot for GIPC1 and stomatin
FLAG-GLUT1 S490A = target: T1, FLAG-GLUT1 S490A (UniProt P11167)
T1 sequence: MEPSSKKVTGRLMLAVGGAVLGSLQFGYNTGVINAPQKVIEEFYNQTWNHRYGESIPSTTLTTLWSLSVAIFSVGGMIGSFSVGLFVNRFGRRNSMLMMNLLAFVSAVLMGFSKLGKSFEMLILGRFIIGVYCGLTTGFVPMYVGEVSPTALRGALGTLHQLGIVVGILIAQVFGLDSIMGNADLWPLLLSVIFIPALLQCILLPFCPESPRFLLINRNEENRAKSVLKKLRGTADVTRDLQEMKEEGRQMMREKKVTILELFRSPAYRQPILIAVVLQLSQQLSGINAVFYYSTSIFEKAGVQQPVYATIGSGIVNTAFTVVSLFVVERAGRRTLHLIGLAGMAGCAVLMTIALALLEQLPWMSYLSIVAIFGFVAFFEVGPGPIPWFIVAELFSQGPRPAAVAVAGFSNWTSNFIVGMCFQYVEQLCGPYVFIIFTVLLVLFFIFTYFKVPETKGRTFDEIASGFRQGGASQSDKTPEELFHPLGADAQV

FLAG-GLUT1 S490D = target: T2, FLAG-GLUT1 S490D (UniProt P11167)
T2 sequence: T1 sequence with A490D

FLAG-GLUT1 = target: T3, FLAG-GLUT1 (UniProt P11167)
T3 sequence: T1 sequence with A490S

Measured: binding

stomatin (STOM) (rat (endogenous in L6))
binds: all assays above
